# PubChem BioAssay AID504791 – Drosophila RNAi Screening Center, 2011
# Aim: 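Genes whose knock-down strengthens or weakens small-RNA reporter silencing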 (primary screen)
# System: Drosophila S2-derived reporter cells
# Reagents: long dsRNA against Drosophila genes, about 150-250 ng dsRNA per well (siRNA assay); about 80-120 ng (miRNA assay)
# Time to read-out: about 5 days (siRNA assay); about 4 days (miRNA assay)
# Challenge: copper sulfate induction of reporters: 25 µM (siRNA assay); 200 mM stated (miRNA assay), 1-2 days before reading
# Read-out: 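Per-well ratio of Renilla over firefly light, expressed relative to that plate's average ratio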
# Scale: siRNA reporter hit score: higher = 3 marks a strong hit with raised ratio; -3 a strong hit with lowered ratio
# Rule for the call: 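First-pass picks had plate-scaled ratios over 1.5 for the siRNA assay, over 1.6 for the miRNA assay, or under 0.6; two distinct dsRNAs had to score alike on retest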
# In all, the deposit lists about 23,000 reagents; below is an unselected part of those with a known target gene and a result. In the full data, 199 (0.86%) got an active call. 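Plate-scaled ratios behind the calls are not deposited; printed light signals are raw; many rows marked increased or decreased are still called inactive.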 A plus sign joins genes that one reagent is predicted to hit.
gene,DRSC id,siRNA reporter hit score,stable siRNA reporter change,miRNA reporter change,"stable assay Renilla, run 1 (luminescence)","stable assay firefly, run 1 (luminescence)",Outcome
AlaRS,DRSC01851,,,,12020,1.30e6,inactive
Atet,DRSC00263,,,,7398,6.16e5,inactive
SLC22A,DRSC11826,,,,6538,4.57e5,inactive
SLC22A,DRSC11827,,,,5811,3.31e5,inactive
CG32061,DRSC22605,,,,4007,3.40e5,inactive
CG31460,DRSC14370,,,,9442,4.63e5,inactive
Cenp-C,DRSC14371,,,,7246,3.89e5,inactive
CG7222,DRSC07019,,,,7639,4.06e5,inactive
sr,DRSC13284,,,,4586,4.35e5,inactive
sr,DRSC17067,,,,5159,2.46e5,inactive
CG10589,DRSC11629,,,,7757,5.47e5,inactive
Vago,DRSC19833,,,,4863,3.29e5,inactive
ItgaPS5,DRSC04501,,,,6118,4.09e5,inactive
ome,DRSC09322,,,,5159,3.78e5,inactive
ome,DRSC10282,,,,8508,4.45e5,inactive
ome,DRSC11380,,,,7711,3.25e5,inactive
CG30259,DRSC04164,,,,4698,2.47e5,inactive
CG30259,DRSC04165,,,,6072,3.86e5,inactive
CG16974,DRSC02551,,,,1.11e5,1.18e6,inactive
Wnk,DRSC11813,,,,4423,2.34e5,inactive
Hsp70Bb + Hsp70Ba + Hsp70Bc + 1 more,DRSC21247,,,reporter ratio raised past the hit cutoff,5303,4.83e5,inactive
Hsp70Bb + Hsp70Ba + Hsp70Bc + 1 more,DRSC21248,,,,6291,4.78e5,inactive
Sdb,DRSC06272,,,,5671,3.54e5,inactive
Sdb,DRSC06273,,,,5847,3.63e5,inactive
Sdb,DRSC07155,,,,9086,4.67e5,inactive
pbl,DRSC11381,,,,7863,3.28e5,inactive
TwdlB,DRSC16050,,,,6290,5.74e5,inactive
grim,DRSC11352,,reporter ratio raised past the hit cutoff,,6212,1.94e5,inactive
grim,DRSC23169,,,,6471,4.50e5,inactive
AnxB10,DRSC20677,,,,7411,3.68e5,inactive
CG12321,DRSC14499,,,,8624,3.68e5,inactive
sdt,DRSC17555,,,,4787,3.68e5,inactive
sdt,DRSC17556,,,,4800,3.59e5,inactive
sdt,DRSC17860,,,,5586,3.66e5,inactive
sdt,DRSC17861,,,,5803,3.80e5,inactive
sdt,DRSC18022,,,,4908,3.29e5,inactive
sdt,DRSC18025,3,,,4439,1.69e5,inactive
sdt,DRSC18026,,,,4460,1.87e5,inactive
sdt,DRSC18027,,,,4970,2.43e5,inactive
sdt,DRSC18108,,,,7278,5.07e5,inactive
Naxd,DRSC09722,,,,9140,2.78e5,inactive
CG15699 (retired record),DRSC06571,,reporter ratio lowered past the hit cutoff,,7325,6.27e5,inactive
CG34451,DRSC09388,,,,6335,5.69e5,inactive
CG34451,DRSC09389,,,,5566,4.48e5,inactive
mRpL39,DRSC10255,,,,7086,3.90e5,inactive
Mst84Db,DRSC12542,,,,7874,4.99e5,inactive
Mst84Db,DRSC12598,,,,7099,5.75e5,inactive
Mst84Db,DRSC29236,,,reporter ratio lowered past the hit cutoff,,,inactive
Vrp1,DRSC04148,,,,10951,1.19e6,inactive
CycH,DRSC11861,,,,7060,4.41e5,inactive
CycH,DRSC21308,,,,3607,4.28e5,inactive
Dlish,DRSC06016,,,,6484,3.35e5,inactive
CG14711 + Zaf1,DRSC14934,,,,6235,3.46e5,inactive
CG7714,DRSC16300,,,,7334,2.85e5,inactive
CG4598,DRSC02763,,,,6886,3.82e5,inactive
ppk21,DRSC14466,,,,6356,3.83e5,inactive
Cht6,DRSC18001,,,,4459,3.99e5,inactive
Cht6,DRSC18002,,,,5176,2.86e5,inactive
Cht6,DRSC18253,,,,4299,3.59e5,inactive
Cht6,DRSC23211,,,,3899,2.20e5,inactive
CG32320,DRSC21514,,,,8223,3.83e5,inactive
CG7968,DRSC01903,,,,8290,3.74e5,inactive
corolla,DRSC20102,,,,8412,4.35e5,inactive
CG32834,DRSC21929,,,,10994,6.13e5,inactive
stops,DRSC15095,,,,5403,3.40e5,inactive
stops,DRSC15096,,,,5619,4.06e5,inactive
stops,DRSC15097,,,,6278,4.08e5,inactive
CG12865 (retired record),DRSC06205,,,reporter ratio lowered past the hit cutoff,5883,3.20e5,inactive
Cht7 + tRNA:Cys-GCA-1-4 + tRNA:Lys-CTT-1-13,DRSC08021,,,,4647,3.44e5,inactive
CG31140,DRSC13649,,,,6955,7.34e5,inactive
CG31140,DRSC14603,,,,10113,4.83e5,inactive
CG31140,DRSC15904,,,,7319,3.59e5,inactive
pix,DRSC10533,,,,4527,4.13e5,inactive
nerfin-2,DRSC14547,,,,6027,3.16e5,inactive
mAChR-B,DRSC16345,,,,6543,3.01e5,inactive
Jon74E,DRSC10617,,,,8038,5.11e5,inactive
Cyp4e1,DRSC07370,,,,6146,3.51e5,inactive
TwdlQ,DRSC14745,,,,5760,3.64e5,inactive
TwdlQ,DRSC23107,,,,3691,3.24e5,inactive
FIG4,DRSC00515,,,,12278,7.31e5,inactive
cwo,DRSC17072,,,,7210,5.17e5,inactive
Cyp4ae1,DRSC18455,,,,8048,4.94e5,inactive
CG8170,DRSC07087,,,,5348,2.63e5,inactive
Hou,DRSC20001,,,,7851,4.62e5,inactive
Hou,DRSC22347,,,,9454,5.83e5,inactive
Qsox4,DRSC14224,,,,9217,3.52e5,inactive
CG12609,DRSC19473,,,,6854,4.74e5,inactive
Gpdh1,DRSC03336,,,,1.07e5,1.83e5,inactive
Gpdh1,DRSC21666,,,,10113,5.93e5,inactive
CalpB,DRSC11109,,,,8795,4.93e5,inactive
Polr3C,DRSC14490,,reporter ratio lowered past the hit cutoff,,3127,4.41e5,inactive
CG42346,DRSC20622,,,,4716,3.23e5,inactive
CG42346,DRSC20644,,,,6427,4.84e5,inactive
mRpS7,DRSC02814,,,,7123,1.63e6,inactive
RPA3,DRSC19658,,,,6311,4.42e5,inactive
CG9304,DRSC04538,,,,7739,4.59e5,inactive
CG32055,DRSC10666,,,,8227,5.24e5,inactive
caps,DRSC11333,,,,5667,3.62e5,inactive
caps,DRSC22224,,,,9923,6.87e5,inactive
Cyp6a8,DRSC07384,,,,8154,5.05e5,inactive
Sec22,DRSC18538,,,,8759,4.49e5,inactive
CG9945,DRSC07347,,,,6472,4.56e5,inactive
CG31883,DRSC02561,,,reporter ratio raised past the hit cutoff,6438,5.00e5,inactive
kin17,DRSC11890,,,,8974,6.04e5,inactive
ocn,DRSC17020,,,,6694,5.20e5,inactive
CG14764,DRSC05072,,,,4604,3.37e5,inactive
CG14764,DRSC06498,,,,8620,3.93e5,inactive
CG14764,DRSC06844,,,,7190,3.13e5,inactive

Copied from above (11 entries):
gene,DRSC id,siRNA reporter hit score,stable siRNA reporter change,miRNA reporter change,"stable assay Renilla, run 1 (luminescence)","stable assay firefly, run 1 (luminescence)",Outcome
Cyp4e1,DRSC07370,,,,6146,3.51e5,inactive
TwdlQ,DRSC14745,,,,5760,3.64e5,inactive
TwdlQ,DRSC23107,,,,3691,3.24e5,inactive
FIG4,DRSC00515,,,,12278,7.31e5,inactive
cwo,DRSC17072,,,,7210,5.17e5,inactive
Cyp4ae1,DRSC18455,,,,8048,4.94e5,inactive
CG8170,DRSC07087,,,,5348,2.63e5,inactive
Hou,DRSC20001,,,,7851,4.62e5,inactive
Hou,DRSC22347,,,,9454,5.83e5,inactive
Qsox4,DRSC14224,,,,9217,3.52e5,inactive
CG12609,DRSC19473,,,,6854,4.74e5,inactive
